Measured data: PubChem BioAssay AID686938 (Drosophila RNAi Screening Center, 2013)
In all, the deposit lists about 23,000 reagents; shown is an unselected part of those with a known target gene and a result. In the full data, 75 (0.33%) got an active call. 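Raw plate signals without normalisation; calls rest on plate z-scores that were not deposited; ratio present for only 364 wells.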 A plus sign joins genes that one reagent is predicted to hit. Not stated in the record: the dose of the treatment.

Assay: 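Fly genes required for calcium entry once internal stores are emptied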 (primary screen)
Cells: Drosophila S2R+ cells
Reagents: long dsRNA against Drosophila genes, about 0.25 µg dsRNA per well, roughly 10,000 cells
Timing: 5 days of knock-down before the calcium assay
Challenge: thapsigargin (SERCA pump blocker) to empty calcium stores; entry signal taken 4 min after adding it
Measurement: 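Per-well fluo-4 fluorescence in two replicates, unnormalised, measured in resting cells and 4 min after store depletion by the SERCA blocker thapsigargin; ratio of the two present in few wells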
Direction: calcium entry signal: higher = stronger calcium signal after store depletion; resting calcium signal: higher = higher resting calcium signal
Hit rule: 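Hit if the duplicate-averaged plate z-score for entry over resting signal is under −3; wells with weak total dye signal (Fmax z < −2) or more than 5 off-targets removed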
Meaning of the calls: active = strongly reduced calcium entry; inactive = no strong reduction

Target gene | DRSC id | calcium entry signal, replicate 1 (fluorescence units) | calcium entry signal, replicate 2 (fluorescence units) | resting calcium signal, replicate 1 (fluorescence units) | resting calcium signal, replicate 2 (fluorescence units) | Outcome
Snx6 | DRSC03081 | 4.79e7 | – | 3.27e7 | – | inactive
Atg9 | DRSC06848 | 3.11e7 | 3.36e7 | 1.47e7 | 1.67e7 | inactive
CG1486 | DRSC20508 | 4.58e7 | 4.83e7 | 2.05e7 | 2.09e7 | inactive
DIP-gamma | DRSC14873 | 3.53e7 | 3.00e7 | 1.49e7 | 1.35e7 | inactive
CG6962 | DRSC16153 | 1.73e7 | 1.94e7 | 9.97e6 | 1.13e7 | inactive
ND-30 | DRSC08243 | 3.62e7 | 2.88e7 | 2.29e7 | 1.07e7 | inactive
MsrA | DRSC11159 | 3.32e7 | 5.17e7 | 1.82e7 | 1.84e7 | inactive
CG9920 | DRSC16578 | 2.96e7 | 4.32e7 | 1.53e7 | 5.78e7 | inactive
Sirt4 | DRSC18290 | 3.39e7 | 4.21e7 | 1.58e7 | 2.06e7 | inactive
CG13813 | DRSC10068 | 1.77e7 | 3.43e7 | 1.01e7 | 1.58e7 | inactive
CG8314 | DRSC07144 | 3.14e7 | 2.34e7 | 1.45e7 | 1.30e7 | inactive
CG42340 | DRSC17458 | 2.98e7 | 5.15e7 | 1.51e7 | 2.32e7 | inactive
CG42340 | DRSC17841 | 2.86e7 | 4.40e7 | 1.39e7 | 2.13e7 | inactive
CG42340 | DRSC18305 | 2.60e7 | 3.68e7 | 1.36e7 | 1.80e7 | inactive
CG42340 | DRSC21619 | 3.63e7 | 4.41e7 | 2.01e7 | 1.91e7 | inactive
Rim2 | DRSC00073 | 4.48e7 | 4.04e7 | 2.17e7 | 1.92e7 | inactive
Rim2 | DRSC00520 | 5.05e7 | – | 2.58e7 | – | inactive
Rim2 | DRSC22699 | 3.29e7 | 3.13e7 | 1.72e7 | 1.41e7 | inactive
PK2-R2 | DRSC16448 | 2.87e7 | 5.40e7 | 1.50e7 | 8.80e7 | inactive
CG34195 | DRSC06909 | 4.02e7 | 4.72e7 | 1.76e7 | 2.36e7 | inactive
Brms1 | DRSC19896 | 2.48e7 | 2.19e7 | 1.34e7 | 1.18e7 | inactive
CG13203 | DRSC06327 | 2.70e7 | 3.94e7 | 1.40e7 | 1.83e7 | inactive
CG34005 | DRSC05700 | 1.56e7 | 3.54e7 | 7.90e6 | 2.51e7 | inactive
CG2021 | DRSC08546 | 3.60e7 | 3.67e7 | 1.85e7 | 1.65e7 | inactive
dare | DRSC07602 | 2.56e7 | 2.55e7 | 1.09e7 | 1.20e7 | inactive
LManI | DRSC02838 | 4.86e7 | 5.55e7 | 2.40e7 | 2.46e7 | inactive
udd | DRSC06720 | 2.84e7 | 2.93e7 | 1.35e7 | 1.34e7 | inactive
lilli | DRSC00708 | 3.32e7 | 4.18e7 | 2.11e7 | 1.91e7 | inactive
Pp2C1 | DRSC18699 | 3.14e7 | 2.61e7 | 1.52e7 | 1.36e7 | inactive
Pp2C1 | DRSC23287 | 3.83e7 | 4.67e7 | 1.93e7 | 2.07e7 | inactive
CG13102 | DRSC02202 | 3.69e7 | 5.27e7 | 1.74e7 | 2.30e7 | inactive
Rfk | DRSC15454 | 2.39e7 | 2.77e7 | 9.98e6 | 1.25e7 | inactive
Mtl | DRSC16751 | 2.63e7 | 3.71e7 | 1.43e7 | 1.70e7 | inactive
orb2 + CG43783 | DRSC10540 | 5.12e7 | 3.12e7 | 3.48e7 | 1.43e7 | inactive
orb2 + CG43783 | DRSC10541 | 3.25e7 | 4.62e7 | 1.61e7 | 2.02e7 | inactive
orb2 + CG43783 | DRSC10542 | 5.00e7 | 3.44e7 | 3.39e7 | 1.31e7 | inactive
CG32026 | DRSC08950 | 3.68e7 | 5.72e7 | 2.15e7 | 2.59e7 | inactive
Cad99C | DRSC15050 | 3.49e7 | 6.03e7 | 1.83e7 | 2.44e7 | inactive
Cad99C | DRSC16317 | 4.89e7 | 5.16e7 | 2.28e7 | 2.41e7 | inactive
Rbbp5 + CG6434 (retired record) | DRSC10635 | 1.96e7 | 3.11e7 | 9.39e6 | 1.48e7 | inactive
tow | DRSC10192 | 2.38e7 | 3.27e7 | 1.67e7 | 1.84e7 | inactive
tow | DRSC23125 | 4.32e7 | 3.07e7 | 2.04e7 | 1.43e7 | inactive
CG4988 | DRSC02800 | 4.59e7 | 5.18e7 | 2.27e7 | 2.24e7 | inactive
CG8155 | DRSC07084 | 2.26e7 | 2.17e7 | 1.09e7 | 1.01e7 | inactive
CG8155 | DRSC21543 | 3.85e7 | 3.71e7 | 2.43e7 | 1.81e7 | inactive

13 consecutive reagents from above, quoted:
Target gene | DRSC id | calcium entry signal, replicate 1 (fluorescence units) | calcium entry signal, replicate 2 (fluorescence units) | resting calcium signal, replicate 1 (fluorescence units) | resting calcium signal, replicate 2 (fluorescence units) | Outcome
CG34005 | DRSC05700 | 1.56e7 | 3.54e7 | 7.90e6 | 2.51e7 | inactive
CG2021 | DRSC08546 | 3.60e7 | 3.67e7 | 1.85e7 | 1.65e7 | inactive
dare | DRSC07602 | 2.56e7 | 2.55e7 | 1.09e7 | 1.20e7 | inactive
LManI | DRSC02838 | 4.86e7 | 5.55e7 | 2.40e7 | 2.46e7 | inactive
udd | DRSC06720 | 2.84e7 | 2.93e7 | 1.35e7 | 1.34e7 | inactive
lilli | DRSC00708 | 3.32e7 | 4.18e7 | 2.11e7 | 1.91e7 | inactive
Pp2C1 | DRSC18699 | 3.14e7 | 2.61e7 | 1.52e7 | 1.36e7 | inactive
Pp2C1 | DRSC23287 | 3.83e7 | 4.67e7 | 1.93e7 | 2.07e7 | inactive
CG13102 | DRSC02202 | 3.69e7 | 5.27e7 | 1.74e7 | 2.30e7 | inactive
Rfk | DRSC15454 | 2.39e7 | 2.77e7 | 9.98e6 | 1.25e7 | inactive
Mtl | DRSC16751 | 2.63e7 | 3.71e7 | 1.43e7 | 1.70e7 | inactive
orb2 + CG43783 | DRSC10540 | 5.12e7 | 3.12e7 | 3.48e7 | 1.43e7 | inactive
orb2 + CG43783 | DRSC10541 | 3.25e7 | 4.62e7 | 1.61e7 | 2.02e7 | inactive

Continued:
Target gene | DRSC id | calcium entry signal, replicate 1 (fluorescence units) | calcium entry signal, replicate 2 (fluorescence units) | resting calcium signal, replicate 1 (fluorescence units) | resting calcium signal, replicate 2 (fluorescence units) | Outcome
DNAlig4 | DRSC19436 | 5.06e7 | 4.13e7 | 2.20e7 | 1.97e7 | inactive
or | DRSC04329 | 4.06e7 | 4.71e7 | 2.22e7 | 2.30e7 | inactive
CG10874 | DRSC00297 | 2.61e7 | 2.66e7 | 1.22e7 | 1.22e7 | inactive
ben | DRSC20310 | 2.79e7 | 2.87e7 | 1.34e7 | 1.32e7 | inactive
ben | DRSC21261 | 4.19e7 | 5.00e7 | 2.38e7 | 2.25e7 | inactive
Dic1 | DRSC14125 | 3.84e7 | 4.52e7 | 1.48e7 | 2.11e7 | inactive
Naxe | DRSC18251 | 3.60e7 | 4.17e7 | 1.79e7 | 1.82e7 | inactive
UQCR-11L | DRSC22166 | 3.38e7 | 5.07e7 | 1.64e7 | 2.54e7 | inactive
CG1231 | DRSC08267 | 4.04e7 | 4.11e7 | 1.95e7 | 1.67e7 | inactive
Hydr1 | DRSC07063 | 4.40e7 | 2.28e7 | 1.96e7 | 1.28e7 | inactive
kibra | DRSC14533 | 3.00e7 | 4.36e7 | 1.49e7 | 5.18e7 | inactive
kibra | DRSC16257 | 1.76e7 | 2.62e7 | 1.08e7 | 5.91e7 | inactive
kibra | DRSC23283 | 3.86e7 | 4.50e7 | 2.06e7 | 2.07e7 | inactive
shakB | DRSC20420 | 3.90e7 | 3.44e7 | 1.94e7 | 1.54e7 | inactive
shakB | DRSC20423 | 2.92e7 | 3.62e7 | 1.68e7 | 1.80e7 | inactive
shakB | DRSC20492 | 6.26e7 | 5.56e7 | 2.69e7 | 2.21e7 | inactive
shakB | DRSC20585 | 5.39e7 | 5.22e7 | 2.48e7 | 2.44e7 | inactive
shakB | DRSC21445 | 3.73e7 | 3.33e7 | 2.34e7 | 1.45e7 | inactive
shakB | DRSC22817 | 3.15e7 | 4.36e7 | 1.61e7 | 2.09e7 | inactive
SLO2 | DRSC06212 | 2.40e7 | 4.60e7 | 1.61e7 | 1.97e7 | inactive
SLO2 | DRSC06214 | 4.17e7 | 3.96e7 | 1.79e7 | 1.69e7 | inactive
SLO2 | DRSC06216 | 4.30e7 | 3.31e7 | 1.89e7 | 1.64e7 | inactive
SLO2 | DRSC06218 | 4.43e7 | 4.12e7 | 2.06e7 | 1.86e7 | inactive
SLO2 | DRSC06219 | 3.04e7 | 4.39e7 | 1.91e7 | 1.85e7 | inactive
SLO2 | DRSC23225 | 3.08e7 | 2.69e7 | 1.57e7 | 1.21e7 | inactive
CG13895 | DRSC08365 | 4.28e7 | 3.66e7 | 2.17e7 | 1.69e7 | inactive
Xport-A + Xport-B | DRSC15586 | 3.97e7 | 3.28e7 | 2.01e7 | 1.43e7 | inactive
Gr97a | DRSC13802 | 2.59e7 | 2.87e7 | 1.23e7 | 1.40e7 | inactive
CG5084 | DRSC06913 | 4.21e7 | 5.25e7 | 1.77e7 | 2.40e7 | inactive
CG6974 | DRSC16160 | 3.80e7 | 4.94e7 | 1.76e7 | 5.54e7 | inactive
